These are yes or no findings as the source states them, for the method shown. A result given as binding can be weak or reduced; the word gives no strength.
Target: CTHRC1 (species not stated)
Assay: ELISA

binding	Binder
binds	CTHRC1S-M11 (antibody, V domains shown) VH: QVTLRESGPALVKPTQTLTLTCTFSGFSLSTNVMCVSWIRQPPGKALEWLALIDWDDDKYYSTSLKTRLTISKDTSKNQVVLTMTNMDPVDTATYYCARTGITGTHYYYYYMDVWGKGTTVTVSS VL: AIQMTQSPSSLSASVGDRVTITCRASQGIRNDLGWYQQKPGKAPKLLIYAASSLQSGVPSRFSGSGFGTDFTLTISSLQPEDFATYYCLQDYNYPWTFGQGTKVEIK
binds	CTHRC1S-M5 (antibody, V domains shown) VH: EVQLVESGGGLVTPGGSLRLSCAASGFTFSTYSMNWVRQAPGKGLEWVSSISGSSGHIYYADSVRGRFTISRDNAKNSLYLQMNSLRAEDTAVYYCASMHYYYYLDVWGKGTTVTVSS VL: QAVVTQESALTTSPGETVTLTCRSSTGTVTTSNYVTWVQEKPDHLFTGLIGATNNRAPGVPARFSGSLIGDKAALTITGAQTEDEAIYFCALWYSNHWVFGGGTKLTVL
